The record followed here is publication PMC4743919.

Protein sequences, listed by entry. Tags and fused reporters are not part of them.
UniProt P04911: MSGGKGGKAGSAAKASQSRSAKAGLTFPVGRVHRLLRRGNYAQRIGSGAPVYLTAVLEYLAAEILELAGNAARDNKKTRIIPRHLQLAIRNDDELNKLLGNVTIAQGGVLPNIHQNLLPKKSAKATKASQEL
UniProt P02294: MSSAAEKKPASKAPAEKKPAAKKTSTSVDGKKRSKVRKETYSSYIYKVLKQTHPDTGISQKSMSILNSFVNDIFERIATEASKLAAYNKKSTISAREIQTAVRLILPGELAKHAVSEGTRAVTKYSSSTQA

For this assay, the target named is T1, PA-tagged Mms22 (S. cerevisiae) (UniProt Q06164).
T1 sequence: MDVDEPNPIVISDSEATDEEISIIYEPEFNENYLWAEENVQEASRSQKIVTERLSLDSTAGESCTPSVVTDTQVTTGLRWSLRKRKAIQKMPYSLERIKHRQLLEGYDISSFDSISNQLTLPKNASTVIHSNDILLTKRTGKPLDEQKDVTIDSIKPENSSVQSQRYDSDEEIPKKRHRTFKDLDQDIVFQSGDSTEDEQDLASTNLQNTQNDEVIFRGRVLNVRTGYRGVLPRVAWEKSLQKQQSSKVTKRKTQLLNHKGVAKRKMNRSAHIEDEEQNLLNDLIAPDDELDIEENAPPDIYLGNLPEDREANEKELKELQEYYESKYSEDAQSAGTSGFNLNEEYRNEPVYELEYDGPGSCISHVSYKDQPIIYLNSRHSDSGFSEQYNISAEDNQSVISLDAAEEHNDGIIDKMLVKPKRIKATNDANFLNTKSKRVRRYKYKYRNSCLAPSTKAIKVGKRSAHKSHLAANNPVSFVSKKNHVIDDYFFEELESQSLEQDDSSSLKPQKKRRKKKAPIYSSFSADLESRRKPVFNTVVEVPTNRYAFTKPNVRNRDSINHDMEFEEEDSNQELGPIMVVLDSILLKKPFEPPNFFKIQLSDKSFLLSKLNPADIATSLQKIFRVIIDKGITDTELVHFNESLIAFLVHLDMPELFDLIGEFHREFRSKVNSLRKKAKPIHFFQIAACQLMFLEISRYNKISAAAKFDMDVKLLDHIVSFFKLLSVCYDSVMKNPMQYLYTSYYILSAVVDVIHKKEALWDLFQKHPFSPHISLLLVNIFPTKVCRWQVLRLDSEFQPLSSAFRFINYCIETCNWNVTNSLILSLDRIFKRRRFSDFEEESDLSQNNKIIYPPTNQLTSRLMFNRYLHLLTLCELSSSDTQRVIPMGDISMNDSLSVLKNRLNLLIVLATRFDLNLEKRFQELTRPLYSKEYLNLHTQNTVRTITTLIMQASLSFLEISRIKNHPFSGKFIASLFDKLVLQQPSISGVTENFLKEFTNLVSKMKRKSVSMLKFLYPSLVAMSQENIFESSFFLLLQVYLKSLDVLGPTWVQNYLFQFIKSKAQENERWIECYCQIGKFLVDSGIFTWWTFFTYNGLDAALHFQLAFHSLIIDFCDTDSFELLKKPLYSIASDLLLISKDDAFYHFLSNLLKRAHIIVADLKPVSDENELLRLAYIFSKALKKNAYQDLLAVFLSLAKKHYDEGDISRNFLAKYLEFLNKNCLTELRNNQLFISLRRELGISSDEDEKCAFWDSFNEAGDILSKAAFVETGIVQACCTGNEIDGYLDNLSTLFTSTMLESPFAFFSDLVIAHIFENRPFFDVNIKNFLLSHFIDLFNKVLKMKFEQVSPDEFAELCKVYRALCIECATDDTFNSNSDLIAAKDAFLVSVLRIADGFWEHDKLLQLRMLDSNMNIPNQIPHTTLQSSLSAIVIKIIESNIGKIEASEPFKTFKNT
The experiment in a line: affinity purification with mass spectrometry; PA-Mms22 immunoprecipitated from S-phase synchronized yeast cells; associated proteins identified by shotgun LC-MS/MS.

These are yes or no findings as the source states them, for the method shown. Binding seen in cells or lysates may run through a third protein. A yes stands for co-enrichment or nearness to the bait. Other partners may have been found. Tags and fused reporters may be left off the sequences shown.

For Hht1 (from UniProt P61830 1-136), the binding result is on record as “binds”.
Consider Hta1 (from UniProt P04911 1-132), for which the binding entry was “binds”.
The entry for Htb2 (from UniProt P02294 1-131) is “binds”.

B1: Ctf4 (protein, UniProt Q01454 1-927)
chain: MVSVIDKLVFDFGGKTLVSLAPDNNTLCVANKNGLTKILKTNNPEEEPETLDSSKLVSSIKCYSNSHFLMTTMQGDALRYNIDSSQEELLARFALPLRDCCVIHSGKMAVFGGDDLELILLELDDETHKKHAIKIDEQVSQISYNSQMNILAVSMINGKVQIFSLTSTIPNKVHELNDYIVANSYDDTHRDKILSNMMDDIDKDNDNDLSETADPDENNVADPEFCAANRICTRVAWHPKGLHFALPCADDTVKIFSIKGYSLQKTLSTNLSSTKAHFIDLQFDPLRGTYIAAVDLNNKLTVWNWETSEIHYTREFKRKITNIAWKIQADSKTLDLVLGTWSGSIAIVQNLAESVVSNIPDQSVAESSTKHGLFVDSESDLENLEGNDDINKSDKLFSDITQEANAEDVFTQTHDGPSGLSEKRKYNFEDEEDFIDDDDGAGYISGKKPHNEHSYSRVHKTHSFPISLANTGKFRYMPFSPAGTPFGFTDRRYLTMNEVGYVSTVKNSEQYSITVSFFDVGRFREYHFEDLFGYDLCFLNEKGTLFGQSKTGQIQYRPHDSIHSNWTKIIPLQAGERITSVAATPVRVIVGTSLGYFRSFNQFGVPFAVEKTSPIVALTAQNYRVFSVHYSQFHGLSYSLSELGTSSKRYYKRECPLPMSLPNINSDMKKDANLDYYNFNPMGIKSLFFSSYGDPCIFGSDNTLLLLSKWRSPEESKWLPILDSNMEIWKMSGGKETTDIHVWPLALAYDTLNCILVKGKHIWPEFPLPLPSEMEIRMPVFVKSKLLEENKAILNKKNEIGADTEAEEGEEDKEIQIPVSMAAEEEYLRSKVLSELLTDTLENDGEMYGNENEVLAALNGAYDKALLRLFASACSDQNVEKALSLAHELKQDRALTAAVKISERAELPSLVKKINNIREARYEQQLK
For B1, the binding entry is “binds”.

B2: Rtt101 (protein, UniProt P47050 1-842)
chain: MINESVSKREGFHESISRETSASNALGLYNKFNDERNPRYRTMIAELHEFFHLTLAETITETDVKELECNKEKAAKFRKLMPKMLNNCRELTQRKSYIPYNSEFNGNDEKQKKFQLLHQHQIVLSFQEFCDELAKLIIDAHVLSFLTRCDYSYEIIPKNWTSFYKLFQYVMGAVGPIISYVPVNYPMIRKELGFETLTIFQYYDSKLFECMKSHFGREFSTLVSATIHHYIHMFPITNTMLEKEVPMLRIMSNCNFSIEGLSPKDFYMKTLRQYYCEESNLRPRLETFKNFKVLLTRNALLASLFSPEWVSDANDLFISHLLLNKKSISEYIEIGKDTYDEEKERYFKTETHFSLLMFRNAFEAKNMLSKFKEFCDDAVSEKLKAAYGSNHDTERLFDEVVQLANVDHLKIYSDSIEYHLCNLLGSTSKAIEQYVKYFESHLFIIVRKIKTTKKDLPRDMKIKYLNENLPILRLKFVNLPTFPNFFERSIFRKTILQSDQNSSFIKDILPVYKDSLMELFKQRIITNVSQEDEMRYRDQYQPYLSQFFQPVEVMADLRIKYASFLSFYENIEAAVKFGKTYNENNSKSFFPLIFDRERIPKVFQQSNEVKKNFVLPQEMDDTWNQFLRNYHEQNKVEDSDASKKELYPMWNLHHCEVESPYIIQDGTNLIFELTLFQTCVLTLFNESDHLTLQVISEQTKLAYKDLALVLKSFCNYKILTRDIDNTYSINESFKPDMKKVKNGKLRVVLPRTASLQSSNTGGERTSSAHHEGSNSQWTQELLKACITRSVKSERNGLDYDHLFETVKQQIKGFSVGEFKDALAKLLRDKFITRDESTATYKY
As to B2, the binding entry is “binds”.

B3: Mms1 (protein, UniProt Q06211 1-1407)
chain: MLGLRTHGLDRYEHYIRRPSDFGKLELQDWLNHKSFRVSPNLLIDSSTTREWNEPELFYQNTEDETWVRPCVGPKLEPSMMMLRYHDSNIGQMPQFCYPISSPINFKPVLKYILQERSELSDGFPQKYNTLIGSLFDIDKNPETLDDSDIEALDDIEMSSDSGNVKEPKIELQALEEIQQKHFSLIVSNNGIFQTGSTSITYIQSGISGSIAIKPNNVAILILLTQPSGHLLSILPLDDGKETYLLQYWNLGQKGQWNIIKHQNEKQFVLIHKELGICKFFEFHLPFTFQLVNNLTLTDSVIMNGSFFPTNYTDLDPYFIIFITAIRYERIVYFVIEWNNNEIKKKEVYQLTVFDGEKTNMTIPIGLNACLVETPLKFSLVSANQIMSGETEFHSFQLKALKGIKSFFPAPLLLLKLQELHPHTFKKFQYCTIISSSTGNICFCVTERSTIVNGNLKFYELTRFKGLKSISPLPSNPINLDSRSSSYVLVVISFSRTLELTLSLEDLRCLDKKDVIKPLKNITFKHTIDSSTEENSQILAFTSSKFYNTHTGSNINDTRNSQVWLTSPNAITQPCIDYKLRKTHQLIHLKQFQIFRHLRIWKCKNLDIALLQRLGINQSNTESSLIFATDAVSNNRIFLLDLTMTTTIDNDDPVQGLINIEDLLCDTENETILLNFTKNNLIQVTRDTIYIDPIGGDKELRKISPGWEFENVTYNDGILIVWNAGLGCVSYIENIDAVDESGALVSNLSSSKGMSKFFKQLGTVTSVNFQIKESTDDPTKYDIWILLPDCVIRTPFSDWISDSLDFSDVYILSVQQALINGPYFCSLDYESYFEVHTLQNNCFKKGSRCTSRVNFQGKDIKFRSFGVNQCLAFSAFEIFVINLTPIHDSRELDFYKLKLPHLGNNNSILEVCPDIENNQLFILYSDGLRILELSYLTSNNGNFLLKSTRSKNKKFLYLDKINRMLVLNQDLREWECIRLSDGKAVGLDSQLLKDDSEEILEIKELPIATEDNPLEKKTVLLISFTSSLKLVLLTAAKNKISNQIIDSYKLDNSRLLNHLVITPRGEIFFLDYKVMGTDNEMSFNKLKVTKHCIDQEERNNTTLRLTLETRFTFKSWSTVKTFTVVGDNIIATTNMGEKLYLIKDFSSSSDESRRVYPLEMYPDSKVQKIIPLNECCFVVAAYCGNRNDLDSRLIFYSLPTIKVGLNNETGSLPDEYGNGRVDDIFEVDFPEGFQFGTMALYDVLHGERHVNRYSEGIRSENDEAEVALRQRRNLLLFWRNHSSTPKPSLRRAATIVYEDHVSSRYFEDISSILGSTAMRTKRLSPYNAVALDKPIQDISYDPAVQTLYVLMADQTIHKFGKDRLPCQDEYEPRWNSGYLVSRRSIVKSDLICEVGLWNLSDNCKNTV
For the molecule B3, the binding entry was “binds”.

B4: Hrt1 (protein, UniProt Q08273 1-121)
chain: MSNEVDRMDVDEDESQNIAQSSNQSAPVETKKKRFEIKKWTAVAFWSWDIAVDNCAICRNHIMEPCIECQPKAMTDTDNECVAAWGVCNHAFHLHCINKWIKTRDACPLDNQPWQLARCGR
Consider B4, for which the binding entry is “binds”.
